Test results published in the supplement of paper PMC10849652.
Some of the results follow.

Sequences of proteins named here, by UniProt entry; tags and fusion partners are left off. A change or cut given only in a name is not applied to a line headed by its entry.
UniProt Q93008, whole entry, looked up: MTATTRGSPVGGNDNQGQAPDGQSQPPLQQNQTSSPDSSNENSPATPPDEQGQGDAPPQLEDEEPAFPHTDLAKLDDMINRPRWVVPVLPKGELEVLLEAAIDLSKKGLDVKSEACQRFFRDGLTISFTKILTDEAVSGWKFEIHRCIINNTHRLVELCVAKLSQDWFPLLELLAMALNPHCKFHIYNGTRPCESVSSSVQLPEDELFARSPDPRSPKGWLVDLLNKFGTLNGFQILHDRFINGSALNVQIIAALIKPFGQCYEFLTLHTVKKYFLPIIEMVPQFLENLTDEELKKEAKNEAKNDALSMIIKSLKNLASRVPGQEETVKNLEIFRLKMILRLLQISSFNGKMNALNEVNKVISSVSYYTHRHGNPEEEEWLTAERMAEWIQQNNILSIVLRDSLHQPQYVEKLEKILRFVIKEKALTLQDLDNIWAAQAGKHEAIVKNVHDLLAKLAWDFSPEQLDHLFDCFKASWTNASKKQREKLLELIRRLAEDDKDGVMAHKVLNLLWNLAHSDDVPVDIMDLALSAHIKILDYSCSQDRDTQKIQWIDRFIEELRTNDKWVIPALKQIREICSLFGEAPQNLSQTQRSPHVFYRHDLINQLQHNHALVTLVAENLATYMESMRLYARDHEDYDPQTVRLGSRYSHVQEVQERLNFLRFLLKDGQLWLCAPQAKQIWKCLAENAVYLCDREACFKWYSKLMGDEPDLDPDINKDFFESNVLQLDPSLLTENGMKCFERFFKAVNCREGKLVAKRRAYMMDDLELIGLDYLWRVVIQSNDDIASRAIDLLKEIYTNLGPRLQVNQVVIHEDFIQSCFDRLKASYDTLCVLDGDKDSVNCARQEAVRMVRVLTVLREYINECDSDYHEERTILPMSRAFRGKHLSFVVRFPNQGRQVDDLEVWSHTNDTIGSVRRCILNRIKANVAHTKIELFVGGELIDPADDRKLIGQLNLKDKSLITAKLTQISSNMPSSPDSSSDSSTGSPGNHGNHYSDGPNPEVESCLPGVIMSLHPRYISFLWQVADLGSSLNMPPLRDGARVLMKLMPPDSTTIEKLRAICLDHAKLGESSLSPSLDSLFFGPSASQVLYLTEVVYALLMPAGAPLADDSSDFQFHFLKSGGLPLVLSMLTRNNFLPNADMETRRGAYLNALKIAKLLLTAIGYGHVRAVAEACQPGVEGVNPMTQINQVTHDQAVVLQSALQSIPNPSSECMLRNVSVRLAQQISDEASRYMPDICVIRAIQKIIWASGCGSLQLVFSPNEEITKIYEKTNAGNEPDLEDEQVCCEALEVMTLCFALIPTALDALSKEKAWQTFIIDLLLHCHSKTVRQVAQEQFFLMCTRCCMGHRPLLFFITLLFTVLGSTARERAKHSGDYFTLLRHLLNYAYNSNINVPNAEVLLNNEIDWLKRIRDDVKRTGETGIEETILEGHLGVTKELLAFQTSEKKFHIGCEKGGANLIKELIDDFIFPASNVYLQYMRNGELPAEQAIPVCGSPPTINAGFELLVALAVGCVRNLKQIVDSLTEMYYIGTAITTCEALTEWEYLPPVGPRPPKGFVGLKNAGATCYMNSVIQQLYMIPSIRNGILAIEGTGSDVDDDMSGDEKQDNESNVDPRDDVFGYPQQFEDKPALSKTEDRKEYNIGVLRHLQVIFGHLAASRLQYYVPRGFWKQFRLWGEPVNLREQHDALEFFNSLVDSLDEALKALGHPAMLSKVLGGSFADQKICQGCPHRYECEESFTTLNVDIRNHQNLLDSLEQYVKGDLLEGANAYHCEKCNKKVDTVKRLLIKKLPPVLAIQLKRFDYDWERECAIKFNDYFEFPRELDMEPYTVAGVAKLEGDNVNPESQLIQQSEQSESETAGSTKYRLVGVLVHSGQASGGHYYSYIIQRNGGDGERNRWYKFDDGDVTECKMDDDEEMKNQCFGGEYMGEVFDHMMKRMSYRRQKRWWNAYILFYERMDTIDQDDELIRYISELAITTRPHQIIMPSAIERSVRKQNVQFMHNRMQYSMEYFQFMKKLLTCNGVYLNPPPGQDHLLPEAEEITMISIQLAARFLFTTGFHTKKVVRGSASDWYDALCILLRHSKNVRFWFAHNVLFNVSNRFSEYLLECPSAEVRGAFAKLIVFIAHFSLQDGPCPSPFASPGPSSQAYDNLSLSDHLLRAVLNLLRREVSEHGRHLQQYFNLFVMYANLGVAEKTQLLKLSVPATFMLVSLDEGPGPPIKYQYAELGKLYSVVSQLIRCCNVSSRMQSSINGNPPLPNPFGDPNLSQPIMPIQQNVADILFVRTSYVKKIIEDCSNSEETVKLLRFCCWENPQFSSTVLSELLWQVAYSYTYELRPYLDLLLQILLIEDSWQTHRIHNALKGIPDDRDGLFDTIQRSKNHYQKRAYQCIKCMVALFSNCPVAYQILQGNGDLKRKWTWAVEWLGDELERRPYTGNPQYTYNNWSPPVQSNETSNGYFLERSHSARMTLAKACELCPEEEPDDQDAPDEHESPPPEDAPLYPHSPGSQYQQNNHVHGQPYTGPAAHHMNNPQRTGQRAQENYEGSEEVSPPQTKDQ
UniProt P31930: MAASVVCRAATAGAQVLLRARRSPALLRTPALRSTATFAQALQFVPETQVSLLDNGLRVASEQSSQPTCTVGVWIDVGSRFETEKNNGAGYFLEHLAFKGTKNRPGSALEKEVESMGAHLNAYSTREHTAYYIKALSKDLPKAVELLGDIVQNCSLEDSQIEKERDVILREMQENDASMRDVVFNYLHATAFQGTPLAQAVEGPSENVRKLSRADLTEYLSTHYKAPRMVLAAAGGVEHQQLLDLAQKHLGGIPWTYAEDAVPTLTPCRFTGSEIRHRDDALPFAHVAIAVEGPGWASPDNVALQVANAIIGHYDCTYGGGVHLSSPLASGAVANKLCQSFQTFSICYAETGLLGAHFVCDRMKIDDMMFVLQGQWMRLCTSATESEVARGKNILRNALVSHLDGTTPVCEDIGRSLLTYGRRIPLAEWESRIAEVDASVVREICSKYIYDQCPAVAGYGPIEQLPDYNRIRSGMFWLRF
UniProt P47985: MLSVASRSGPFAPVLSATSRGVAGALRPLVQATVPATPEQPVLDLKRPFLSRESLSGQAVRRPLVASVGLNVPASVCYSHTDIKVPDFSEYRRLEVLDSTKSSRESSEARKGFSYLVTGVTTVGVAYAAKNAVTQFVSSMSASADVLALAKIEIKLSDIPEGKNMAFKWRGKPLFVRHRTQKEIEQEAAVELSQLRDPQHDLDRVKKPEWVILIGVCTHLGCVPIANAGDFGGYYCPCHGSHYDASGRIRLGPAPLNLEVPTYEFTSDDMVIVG
UniProt Q9BV40: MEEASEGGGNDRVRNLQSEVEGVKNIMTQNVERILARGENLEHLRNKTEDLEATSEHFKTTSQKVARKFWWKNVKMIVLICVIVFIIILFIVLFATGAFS
UniProt Q92900: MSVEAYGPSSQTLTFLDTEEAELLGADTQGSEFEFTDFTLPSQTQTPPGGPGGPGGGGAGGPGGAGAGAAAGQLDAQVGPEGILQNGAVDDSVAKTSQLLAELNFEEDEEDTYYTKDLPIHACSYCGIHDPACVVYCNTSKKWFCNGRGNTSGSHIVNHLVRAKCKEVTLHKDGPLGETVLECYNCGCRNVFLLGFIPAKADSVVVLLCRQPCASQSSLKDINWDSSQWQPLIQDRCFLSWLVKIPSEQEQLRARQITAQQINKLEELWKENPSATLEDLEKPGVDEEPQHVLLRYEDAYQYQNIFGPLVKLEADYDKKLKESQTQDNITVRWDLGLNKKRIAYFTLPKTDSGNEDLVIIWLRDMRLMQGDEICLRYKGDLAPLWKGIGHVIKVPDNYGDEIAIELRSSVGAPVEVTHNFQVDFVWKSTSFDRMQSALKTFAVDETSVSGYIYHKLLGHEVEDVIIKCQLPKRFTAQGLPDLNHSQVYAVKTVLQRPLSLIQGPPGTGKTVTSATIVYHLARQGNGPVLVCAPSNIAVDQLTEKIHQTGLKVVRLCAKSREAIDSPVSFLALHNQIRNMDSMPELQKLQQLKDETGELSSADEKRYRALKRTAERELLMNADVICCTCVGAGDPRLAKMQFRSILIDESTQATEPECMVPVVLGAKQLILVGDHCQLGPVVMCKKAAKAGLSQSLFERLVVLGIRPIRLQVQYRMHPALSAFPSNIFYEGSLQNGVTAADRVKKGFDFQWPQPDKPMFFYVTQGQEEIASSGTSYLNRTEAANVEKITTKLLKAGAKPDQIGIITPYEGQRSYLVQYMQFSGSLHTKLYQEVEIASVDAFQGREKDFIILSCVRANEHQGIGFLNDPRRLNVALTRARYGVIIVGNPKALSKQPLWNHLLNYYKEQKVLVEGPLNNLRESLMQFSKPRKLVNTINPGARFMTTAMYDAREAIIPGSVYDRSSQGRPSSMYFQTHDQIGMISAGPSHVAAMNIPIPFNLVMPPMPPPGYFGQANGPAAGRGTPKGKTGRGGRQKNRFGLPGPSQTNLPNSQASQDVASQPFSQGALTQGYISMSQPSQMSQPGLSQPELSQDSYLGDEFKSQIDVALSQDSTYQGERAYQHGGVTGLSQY
UniProt Q70J99: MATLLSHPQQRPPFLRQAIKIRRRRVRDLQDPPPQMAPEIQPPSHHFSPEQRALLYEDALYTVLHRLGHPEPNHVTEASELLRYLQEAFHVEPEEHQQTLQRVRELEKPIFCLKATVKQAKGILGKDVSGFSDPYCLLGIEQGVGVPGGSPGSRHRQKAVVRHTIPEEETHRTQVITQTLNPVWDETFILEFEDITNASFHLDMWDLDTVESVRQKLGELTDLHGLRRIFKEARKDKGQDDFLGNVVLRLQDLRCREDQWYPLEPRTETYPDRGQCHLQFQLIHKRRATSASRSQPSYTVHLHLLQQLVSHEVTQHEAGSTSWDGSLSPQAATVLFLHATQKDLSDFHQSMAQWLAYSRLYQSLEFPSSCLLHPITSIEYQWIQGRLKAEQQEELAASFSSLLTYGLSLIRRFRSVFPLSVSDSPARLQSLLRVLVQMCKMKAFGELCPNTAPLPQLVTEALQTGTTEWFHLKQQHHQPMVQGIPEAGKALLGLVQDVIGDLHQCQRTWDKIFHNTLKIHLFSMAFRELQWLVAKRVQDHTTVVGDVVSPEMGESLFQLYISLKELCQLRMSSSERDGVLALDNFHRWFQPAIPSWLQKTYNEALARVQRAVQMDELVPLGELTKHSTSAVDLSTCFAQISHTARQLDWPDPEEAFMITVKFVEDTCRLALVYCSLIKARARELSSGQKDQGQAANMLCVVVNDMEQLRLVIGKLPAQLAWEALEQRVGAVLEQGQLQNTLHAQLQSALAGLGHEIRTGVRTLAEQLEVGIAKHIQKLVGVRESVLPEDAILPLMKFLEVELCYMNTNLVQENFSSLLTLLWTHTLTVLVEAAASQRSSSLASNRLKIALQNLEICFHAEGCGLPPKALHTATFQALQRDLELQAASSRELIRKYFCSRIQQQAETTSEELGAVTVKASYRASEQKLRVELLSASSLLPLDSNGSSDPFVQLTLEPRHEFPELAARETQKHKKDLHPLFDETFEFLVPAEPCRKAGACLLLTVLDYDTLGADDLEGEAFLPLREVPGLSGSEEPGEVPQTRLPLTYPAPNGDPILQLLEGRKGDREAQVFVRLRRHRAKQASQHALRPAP
UniProt O14949: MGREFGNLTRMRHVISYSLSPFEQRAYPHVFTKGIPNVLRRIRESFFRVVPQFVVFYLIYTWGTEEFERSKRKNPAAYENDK
UniProt P61758, whole entry, looked up: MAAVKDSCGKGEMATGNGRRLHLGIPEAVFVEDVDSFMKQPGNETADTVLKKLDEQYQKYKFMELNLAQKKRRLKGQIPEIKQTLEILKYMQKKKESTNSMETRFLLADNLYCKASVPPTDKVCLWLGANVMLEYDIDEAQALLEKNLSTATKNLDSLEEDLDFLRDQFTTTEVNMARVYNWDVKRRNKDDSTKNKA
UniProt Q99536: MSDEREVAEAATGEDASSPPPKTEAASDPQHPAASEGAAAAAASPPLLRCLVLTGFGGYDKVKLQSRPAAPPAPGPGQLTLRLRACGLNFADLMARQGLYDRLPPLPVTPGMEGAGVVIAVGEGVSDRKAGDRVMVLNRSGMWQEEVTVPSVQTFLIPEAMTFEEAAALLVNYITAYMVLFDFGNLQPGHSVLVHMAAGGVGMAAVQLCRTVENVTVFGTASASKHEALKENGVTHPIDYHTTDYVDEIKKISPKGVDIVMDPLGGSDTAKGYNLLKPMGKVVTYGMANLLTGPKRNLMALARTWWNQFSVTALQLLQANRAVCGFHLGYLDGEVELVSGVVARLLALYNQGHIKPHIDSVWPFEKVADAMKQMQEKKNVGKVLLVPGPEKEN
UniProt Q15836, whole entry, looked up: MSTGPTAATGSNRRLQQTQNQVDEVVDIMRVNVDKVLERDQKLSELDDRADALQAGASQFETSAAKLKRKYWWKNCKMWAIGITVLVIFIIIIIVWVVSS
UniProt Q9Y3C8: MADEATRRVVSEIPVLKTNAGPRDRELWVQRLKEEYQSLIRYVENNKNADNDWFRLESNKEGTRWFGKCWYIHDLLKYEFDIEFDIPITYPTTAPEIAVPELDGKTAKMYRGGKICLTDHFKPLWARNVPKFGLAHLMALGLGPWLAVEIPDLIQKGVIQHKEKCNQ

The targets below were run with C1=CC=C(C=C1)[C@H](COC2=CC3=C(C=C2)NC(=O)N3)NC(=O)C4=CC=CN(C4=O)CC5=CC(=C(C=C5)F)F (assay: log2 fold change, soluble protein after heating vs DMSO (PISA); higher = thermal stabilisation; K562 lysate, 10 uM; active = over 0.2 and 3.5 SD of the protein, either way, in both replicates (recomputed)).
Procedure, shortened: (§1)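 K562 pellets were dounce-homogenised in PBS pH 7.4 containing 1 mM MgCl2, and the crude extract, at 1 mg/mL protein, was exposed to 10 μM compound for 30 min. Aliquots were heated for 3 min across 48°C-58°C, pooled, brought to 0.5% NP-40 at 4°C and spun at 21,000xg for 90 min, with the supernatant taken as soluble protein. TMTpro 16plex LC-MS/MS with equalised channel sums quantified that protein. Values are log-two fold changes in thermal stability relative to solvent controls, taken from duplicates.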

Target | log2 fold change
UEVLD (UniProt Q8IX04) | inactive: 0.021
USP9X (UniProt Q93008) | inactive: -0.033
UTP15 (UniProt Q8TED0) | inactive: -0.021
UPRT (UniProt Q96BW1) | inactive: 0.024
VEZT (UniProt F8W8C2) | inactive: 0.009
UQCRC1 (UniProt P31930) | inactive: 0.024
URI1 (UniProt O94763) | inactive: -0.004
ULBP2 (UniProt Q9BZM5) | inactive: 0.025
UCKL1 (UniProt Q9NWZ5) | inactive: 0.016
USP25 (UniProt Q9UHP3) | inactive: -0.008
UTP6 (UniProt Q9NYH9) | inactive: -0.087
UQCRFS1 (UniProt P47985) | inactive: -0.043
VANGL2 (UniProt Q9ULK5) | inactive: -0.073
VDAC1 (UniProt P21796) | inactive: -0.01
VAMP8 (UniProt Q9BV40) | inactive: 0.037
VDAC2 isoform 2 (UniProt P45880) | inactive: 0.017

Target | log2 fold change
USP20 (UniProt Q9Y2K6) | inactive: -0.178
VAPA isoform 2 (UniProt Q9P0L0) | inactive: 0.066
UIMC1 (UniProt Q96RL1) | inactive: -0.003
UPF1 (UniProt Q92900) | inactive: 0.007
UNC13D (UniProt Q70J99) | inactive: -0.032
UQCRQ (UniProt O14949) | inactive: 0.019
VBP1 (UniProt P61758) | inactive: 0.027
VAT1 (UniProt Q99536) | inactive: 0.036
VAMP3 (UniProt Q15836) | inactive: -0.004
USP15 (UniProt Q9Y4E8) | inactive: 0.007
USP48 (UniProt Q86UV5) | inactive: -0.104
VASP (UniProt P50552) | inactive: -0.005
UQCC1 (UniProt Q9NVA1) | inactive: 0.033
UFC1 (UniProt Q9Y3C8) | inactive: 0.033
UCK2 (UniProt Q9BZX2) | inactive: 0.03
UGDH (UniProt O60701) | inactive: 0.003

These targets were tested with CC1=C(SC2=C1C(=N[C@H](C3=NN=C(N32)C)CC(=O)N)C4=CC=C(C=C4)Cl)C in the same assay as above.
Procedure, shortened: as §1

Target | log2 fold change
UEVLD (UniProt Q8IX04) | inactive: -0.013
USP9X (UniProt Q93008) | inactive: 0.005
UTP15 (UniProt Q8TED0) | inactive: -0.035
UPRT (UniProt Q96BW1) | inactive: -0.011
VEZT (UniProt F8W8C2) | inactive: -0.062
UQCRC1 (UniProt P31930) | inactive: 0.004
URI1 (UniProt O94763) | inactive: -0.002
ULBP2 (UniProt Q9BZM5) | inactive: -0.043
UCKL1 (UniProt Q9NWZ5) | inactive: 0.01
USP25 (UniProt Q9UHP3) | inactive: 0.013
UTP6 (UniProt Q9NYH9) | inactive: 0.063
UQCRFS1 (UniProt P47985) | inactive: 0.005
VANGL2 (UniProt Q9ULK5) | inactive: 0.167
VDAC1 (UniProt P21796) | inactive: 0.024
VAMP8 (UniProt Q9BV40) | inactive: -0.001
VDAC2 isoform 2 (UniProt P45880) | inactive: -0.002

Target | log2 fold change
USP20 (UniProt Q9Y2K6) | inactive: -0.086
VAPA isoform 2 (UniProt Q9P0L0) | inactive: -0.043
UIMC1 (UniProt Q96RL1) | inactive: 0.001
UPF1 (UniProt Q92900) | inactive: 0.006
UNC13D (UniProt Q70J99) | inactive: 0.067
UQCRQ (UniProt O14949) | inactive: 0
VBP1 (UniProt P61758) | inactive: 0.011
VAT1 (UniProt Q99536) | inactive: -0.025
VAMP3 (UniProt Q15836) | inactive: -0.102
USP15 (UniProt Q9Y4E8) | inactive: 0.008
USP48 (UniProt Q86UV5) | inactive: -0.028
VASP (UniProt P50552) | inactive: 0.006
UQCC1 (UniProt Q9NVA1) | inactive: -0.009
UFC1 (UniProt Q9Y3C8) | inactive: -0.067
UCK2 (UniProt Q9BZX2) | inactive: -0.013
UGDH (UniProt O60701) | inactive: 0.001

These targets were tested with CC1=C2C(=CC=C1)N=C(N(C2=O)C3=CC=CC=C3C)CN4C=NC5=C(N=CN=C54)N in the same assay as above.
Procedure, shortened: as §1

Target | log2 fold change
UEVLD (UniProt Q8IX04) | inactive: -0.057
USP9X (UniProt Q93008) | inactive: 0.014
UTP15 (UniProt Q8TED0) | inactive: 0.01
UPRT (UniProt Q96BW1) | inactive: -0.014
VEZT (UniProt F8W8C2) | inactive: 0.01
UQCRC1 (UniProt P31930) | inactive: 0.023
URI1 (UniProt O94763) | inactive: 0.009
ULBP2 (UniProt Q9BZM5) | inactive: 0.087
UCKL1 (UniProt Q9NWZ5) | inactive: 0.003
USP25 (UniProt Q9UHP3) | inactive: 0.027
UTP6 (UniProt Q9NYH9) | inactive: 0.044
UQCRFS1 (UniProt P47985) | inactive: -0.012
VDAC1 (UniProt P21796) | inactive: -0.015
VAMP8 (UniProt Q9BV40) | inactive: -0.002
VDAC2 isoform 2 (UniProt P45880) | inactive: -0.006
VAPA isoform 2 (UniProt Q9P0L0) | inactive: 0.029
UIMC1 (UniProt Q96RL1) | inactive: 0.039
UPF1 (UniProt Q92900) | inactive: 0.005
UNC13D (UniProt Q70J99) | inactive: 0.044
UQCRQ (UniProt O14949) | inactive: -0.007
VBP1 (UniProt P61758) | inactive: 0
VAT1 (UniProt Q99536) | inactive: -0.02
VAMP3 (UniProt Q15836) | inactive: 0.077
USP15 (UniProt Q9Y4E8) | inactive: 0.017
USP48 (UniProt Q86UV5) | inactive: -0.029
VASP (UniProt P50552) | inactive: 0.008
UQCC1 (UniProt Q9NVA1) | inactive: -0.012
UFC1 (UniProt Q9Y3C8) | inactive: -0.017
UCK2 (UniProt Q9BZX2) | inactive: -0.062
UGDH (UniProt O60701) | inactive: -0.004
